# According to article PMC12040169 (PLOS Biology, 2025):
# This is one part of the list.
# Test system: T1, CTL2-GFP (C. trachomatis L2/434/Bu, GFP-expressing)
# T1 construct: L2/434/Bu, GFP-expressing
# Set-up: species or system HeLa; Intracellular C. trachomatis growth in HeLa cells, bulk GFP fluorescence relative to DMSO
# Conditions: bulk GFP, single well; 28.5 h, 10 µM; inhibitor
row,SMILES,% of control remaining
1,CN(C)CCSc1cncc(N2CCCC2)n1 [CBK105294],119.167%
2,Cc1nn(C)c(Cl)c1S(=O)(=O)N1CCN(C)CC1 [CBK062426],117.303%
3,O=C(c1nccs1)C1CCN(C(=O)Cc2ccsc2)CC1 [CBK284176],90.9104%
4,COc1ccc(NC(=O)N2CC[C@H]3CC(=O)N(CCN4CCNC4=O)CC[C@H]3C2)cc1 [CBK288797],140.072%
5,CC(CCc1ccccc1)NC(=O)c1ccccc1C(=O)O (stereo not drawn) [CBK286940],140.056%
6,CCn1c2ccccc2n2c(SCC(=O)O)nnc12 [CBK266869],150.713%
7,CSc1ccc(CNC(=O)c2ccc(Cl)cc2)s1 [CBK057705],141.532%
8,CN1CCN(C(C(=O)O)c2cn(CCC(=O)O)c3ccc(Br)cc23)CC1 (stereo not drawn) [CBK286698],110.313%
9,O=C(O)/C=C/c1cn([C@@H]2O[C@H](CO)[C@H](O)C2O)c(=O)[nH]c1=O (stereo partly drawn) [CBK201270],171.62%
10,COCCn1c(CO)nnc1[C@H]1C[C@@H](NC(=O)c2cc(C)ccc2Cl)C1 [CBK306564],153.154%
11,CC(C)Nc1cccnc1N1CCN(C(=O)c2cc3cc(NC(=O)N4CCOCC4)ccc3[nH]2)CC1 [CBK007872],121.408%
12,NC(=S)N/N=C/c1c[nH]nc1-c1ccccc1 [CBK009705],122.109%
13,CN(Cc1ccc(Br)cc1Cl)C(=O)c1cn[nH]c1C1CCNC1 (stereo not drawn) [CBK304785],87.2494%
14,COc1ccc(CNc2cc(-c3cccc(Cl)c3)nc3ccnn23)cc1 [CBK037037],119.901%
15,CCc1noc(C)c1C(=O)NC(C)c1cc2ccccc2o1 (stereo not drawn) [CBK247065],117.071%
16,Cc1c(CN(C)CC2CCN(C)C2)cnn1Cc1ccccc1 (stereo not drawn) [CBK282616],138.279%
17,O=c1[nH]c(CNc2ccccc2)nc2ccccc12 [CBK288038],111.083%
18,CCCC/C=C/c1nccnc1NCc1ccco1 [CBK037116],98.0189%
19,COc1cc(C2SCC(=O)Nc3c2c(-c2ccccc2)nn3-c2ccccc2)cc(OC)c1OC (stereo not drawn) [CBK265025],129.955%
20,COc1ccc([C@@]23CC[C@@H](NC(=O)c4ccc(C(F)(F)F)cc4F)C[C@@H]2N(C)CC3)cc1OC [CBK073976T],106.098%

row,SMILES,% of control remaining
1,O=C(c1ccc2c(c1)OCO2)N1CCN(C/C=C/c2ccccc2)CC1 [CBK262639],100%
2,O=S(=O)(c1cc(Cl)ccc1Cl)N1CCCN(Cc2ccccc2)CC1 [CBK044491],118.931%
3,COc1ccc(-c2nnc(SCC(=O)NN)n2-c2ccccc2)cc1OC [CBK262264],85.7603%
4,COc1ccc2c(c1)C(=O)NC1(CC2)CCN(Cc2ccccc2)C1 (stereo not drawn) [CBK283343],136.782%
5,O=C(Cn1ccc(=O)[nH]c1=O)NCc1cccnc1-n1cccn1 [CBK305705],127.441%
6,COc1cc(NC(=O)Cn2nc([N+](=O)[O-])c(Cl)c2C)c(OC)cc1Cl [CBK033535],100.784%
7,Cc1c(Br)c(C(F)(F)F)nn1CC(=O)N1CCCC1 [CBK071473],141.892%
8,O=C(O)CCCC(=O)NNC(=O)c1cccc(Br)c1 [CBK263530],123.241%
9,O=C(c1ccco1)N1CCN(c2cncc(-c3cc4ccccc4o3)n2)CC1 [CBK066044],86.3244%
10,Cc1nc(CN2C(=O)CC3(C2=O)C(=O)N(CCCCOc2ccccc2)c2ccccc23)cs1 (stereo not drawn) [CBK076103],140.239%
11,c1ccc(Oc2cccc(CN3CCN(c4ccccn4)CC3)c2)cc1 [CBK261523],115.02%
12,CCOc1cc(/C=C/c2ccc3cccc(O)c3n2)cc(Br)c1O [CBK264451],100%
13,Nc1nc(N)c([C@H]2C[C@@H](O)[C@@H](CO)O2)nc1Cl [CBK201326],149.416%
14,CCN(CC)C(=O)c1ccc(NC(=O)CSc2n[nH]c(=O)n2CC2CCCO2)cc1 (stereo not drawn) [CBK295186],198.104%
15,Cc1nn(C)c(Cl)c1CN1CCCC(CCC(=O)N2CCN(C)CC2)C1 (stereo not drawn) [CBK307716],109.15%
16,CN1CCN(c2cc(NCC(c3cccnc3)N(C)C)nc3ccnn23)CC1 (stereo not drawn) [CBK037157],82.0644%
17,Cn1cc(CN2CCCC(c3cccc(Cc4ccc(Cl)cc4)n3)C2)cn1 (stereo not drawn) [CBK286242],105.267%
18,C#CCNS(=O)(=O)c1cccc(C(=O)NC2CCOc3ccccc32)c1 (stereo not drawn) [CBK305430],99.6839%
19,Cc1cc(C(=O)CSc2nnc(-c3ccccc3F)n2CC(C)C)c(C)[nH]1 [CBK297877],154.605%

# Ordered by heavy-atom count (falling): some entries from above
row,SMILES,% of control remaining
19,COc1cc(C2SCC(=O)Nc3c2c(-c2ccccc2)nn3-c2ccccc2)cc(OC)c1OC (stereo not drawn) [CBK265025],129.955%
9,O=C(c1ccco1)N1CCN(c2cncc(-c3cc4ccccc4o3)n2)CC1 [CBK066044],86.3244%
2,O=S(=O)(c1cc(Cl)ccc1Cl)N1CCCN(Cc2ccccc2)CC1 [CBK044491],118.931%
12,CCOc1cc(/C=C/c2ccc3cccc(O)c3n2)cc(Br)c1O [CBK264451],100%
9,O=C(O)/C=C/c1cn([C@@H]2O[C@H](CO)[C@H](O)C2O)c(=O)[nH]c1=O (stereo partly drawn) [CBK201270],171.62%
2,Cc1nn(C)c(Cl)c1S(=O)(=O)N1CCN(C)CC1 [CBK062426],117.303%
13,Nc1nc(N)c([C@H]2C[C@@H](O)[C@@H](CO)O2)nc1Cl [CBK201326],149.416%
